From PubChem BioAssay (EPA / NIEHS)
The inconclusive results got no clear call from the source; some entries with a clear call stand among them for comparison. Where the call is inconclusive, the potency comes from a doubtful curve fit. The source made the active and inactive calls. Rule for the calls: active = hit-call score of the fitted dose curve at least 0.9, where 1 is the maximum; inconclusive = response in the unintended direction; inactive = score below 0.9.

Protein sequences, listed by entry. Tags and fused reporters are not part of them.
UniProt P49884, whole entry, looked up: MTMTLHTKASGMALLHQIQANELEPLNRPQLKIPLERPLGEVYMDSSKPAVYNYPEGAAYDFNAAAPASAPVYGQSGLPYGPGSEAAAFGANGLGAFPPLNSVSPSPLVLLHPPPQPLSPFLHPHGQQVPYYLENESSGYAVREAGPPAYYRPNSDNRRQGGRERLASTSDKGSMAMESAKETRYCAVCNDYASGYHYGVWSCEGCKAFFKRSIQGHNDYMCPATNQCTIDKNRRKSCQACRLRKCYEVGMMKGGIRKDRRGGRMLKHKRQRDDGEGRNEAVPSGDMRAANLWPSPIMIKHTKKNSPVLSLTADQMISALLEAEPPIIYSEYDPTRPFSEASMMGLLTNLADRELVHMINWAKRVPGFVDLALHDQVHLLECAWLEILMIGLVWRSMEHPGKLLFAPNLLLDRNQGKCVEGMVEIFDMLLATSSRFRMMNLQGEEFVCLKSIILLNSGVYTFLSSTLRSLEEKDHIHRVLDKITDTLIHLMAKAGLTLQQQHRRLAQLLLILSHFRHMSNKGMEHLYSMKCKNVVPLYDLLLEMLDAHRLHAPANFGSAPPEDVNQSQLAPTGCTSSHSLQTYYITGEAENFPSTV

The molecules below were run against bovine Estrogen Receptor (ER), ESR1 (gene 407238) (UniProt P49884) (assay: NVS_NR_bER: NovaScreen (NVS) Nuclear Receptor Binding Assay for bovine Estrogen Receptor (ER) (AID 2283345);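 note: actives lower the bound radioligand count which means they displace the ER ligand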).
How it was run: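 Displacement of a radioligand from estrogen receptor in bovine uterine membrane preparations; scintillation signal taken at 18 hours, DMSO as baseline. Single-concentration duplicates (25 uM) preceded concentration-response follow-up of actives.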

Row | Compound | AC50 | outcome
1 | ClC1=C(Cl)[C@]2(Cl)[C@@H]3[C@@H]4C[C@@H]([C@H]5O[C@@H]45)[C@@H]3[C@@]1(Cl)C2(Cl)Cl | inconclusive: 25 µM | –
2 | OC(c1ccc(Cl)cc1)(c1ccc(Cl)cc1)c1cccnc1 | inconclusive: 0.108 µM | –
3 | CCCCOP(=O)(O)OCCCC | inconclusive: 25 µM | –
4 | O=S(=O)(Oc1ccc(Cl)cc1)c1ccc(Cl)cc1 | inconclusive: 25 µM | –
5 | ClC1=C(Cl)[C@]2(Cl)[C@H]3[C@H]([C@@H]4C=C[C@H]3C4)[C@@]1(Cl)C2(Cl)Cl | inconclusive: 0.045 µM | –
6 | C=CC(=O)OCC(COC(=O)C=C)(COC(=O)C=C)COC(=O)C=C | inconclusive: 5.94 µM | –
7 | CCCN(CCC)c1c([N+](=O)[O-])cc(S(C)(=O)=O)cc1[N+](=O)[O-] | inconclusive: 25 µM | –
8 | CC(C)c1ccc(CO)cc1 | inconclusive: 6.12 µM | –
9 | Oc1c(Cl)c(Cl)c(Cl)c(Cl)c1Cl | – | inactive
10 | COC(=O)c1ccccc1CS(=O)(=O)NC(=O)Nc1nc(OC)cc(OC)n1 | – | inactive
11 | C[C@]12CC[C@H](O)CC1=CC[C@@H]1[C@@H]2CC[C@]2(C)C(=O)CC[C@@H]12 | active: 3.16 µM | –
12 | CC(C)(C)c1cc([N+](=O)[O-])cc(C(C)(C)C)c1O | inconclusive: 25 µM | –
13 | Nc1ccc(Sc2ccc(N)cc2)cc1 | – | inactive
14 | CCC[CH2][Sn]([Cl])([Cl])[CH2]CCC | inconclusive: 5.93 µM | –
15 | c1nc[nH]n1 | – | inactive
16 | Cc1cc(SCc2sc(-c3ccc(C(F)(F)F)c(F)c3)nc2C)ccc1OCC(=O)O | – | inactive

2 entries drawn at random from the list so far, as already listed:
Row | Compound | AC50 | outcome
14 | CCC[CH2][Sn]([Cl])([Cl])[CH2]CCC | inconclusive: 5.93 µM | –
11 | C[C@]12CC[C@H](O)CC1=CC[C@@H]1[C@@H]2CC[C@]2(C)C(=O)CC[C@@H]12 | active: 3.16 µM | –
